Measured values from article PMC10015075.
No constants are given. Whether binding was seen depends on the method and setting. In cells and extracts the contact can be indirect. Some binding calls cover weakened binding; strength is not graded here.

Protein sequences, listed by entry. Tags and fused reporters are not part of them.
UniProt Q9NRC8: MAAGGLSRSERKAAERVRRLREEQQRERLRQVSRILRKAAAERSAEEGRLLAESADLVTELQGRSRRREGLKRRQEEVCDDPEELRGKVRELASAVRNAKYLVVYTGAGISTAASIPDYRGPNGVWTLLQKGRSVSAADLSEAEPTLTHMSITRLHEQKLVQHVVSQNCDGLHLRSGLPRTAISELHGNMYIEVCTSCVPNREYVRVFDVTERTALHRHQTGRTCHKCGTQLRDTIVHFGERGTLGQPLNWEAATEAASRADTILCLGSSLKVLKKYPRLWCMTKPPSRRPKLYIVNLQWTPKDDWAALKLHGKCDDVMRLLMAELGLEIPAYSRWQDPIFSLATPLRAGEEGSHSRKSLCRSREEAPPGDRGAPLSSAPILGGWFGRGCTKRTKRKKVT
UniProt Q13485: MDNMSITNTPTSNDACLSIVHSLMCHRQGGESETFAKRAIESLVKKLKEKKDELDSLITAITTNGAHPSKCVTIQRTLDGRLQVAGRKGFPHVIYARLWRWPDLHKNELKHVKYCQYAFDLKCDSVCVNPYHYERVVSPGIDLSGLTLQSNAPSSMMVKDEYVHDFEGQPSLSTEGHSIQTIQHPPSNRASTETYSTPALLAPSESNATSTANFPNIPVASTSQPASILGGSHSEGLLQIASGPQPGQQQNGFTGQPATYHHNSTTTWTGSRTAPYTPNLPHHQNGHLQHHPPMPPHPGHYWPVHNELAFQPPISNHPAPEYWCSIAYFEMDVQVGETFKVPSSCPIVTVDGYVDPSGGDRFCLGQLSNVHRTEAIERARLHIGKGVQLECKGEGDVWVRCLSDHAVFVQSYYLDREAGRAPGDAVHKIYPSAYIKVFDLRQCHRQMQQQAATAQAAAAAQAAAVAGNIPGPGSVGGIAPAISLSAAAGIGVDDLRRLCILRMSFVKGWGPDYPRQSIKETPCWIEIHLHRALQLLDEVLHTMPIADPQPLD

Target: His-tagged SIRT7 (UniProt Q9NRC8)
Assay: co-IP; A2058 cell lysate in ice-cold RIPA buffer with PMSF; primary antibody or control IgG 1 h at 4 °C, Protein A/G PLUS-Agarose overnight at 4 °C, washed 4 times with ice-cold PBS; immunoblot; His-tagged SIRT7 and endogenous SMAD4, cells with indicated treatment

In the case of “endogenous SMAD4 (from UniProt Q13485 1-552)”, the binding is reported as “binds”.
